Patent US20140221282A1 (priority 2011, published 2014)

Test: general procedure: Fmoc solid-phase peptide synthesis; rink amide resin
Details: conjugation step, overall, TFA salt

Des-Lys 1-Cmpd 4-PEG40K-Mal
conjugation yield: 64.5% yield
